Our source for the binding values is publication PMC13443588.

Protein sequences, listed by entry. Tags and fused reporters are not part of them.
UniProt P35222: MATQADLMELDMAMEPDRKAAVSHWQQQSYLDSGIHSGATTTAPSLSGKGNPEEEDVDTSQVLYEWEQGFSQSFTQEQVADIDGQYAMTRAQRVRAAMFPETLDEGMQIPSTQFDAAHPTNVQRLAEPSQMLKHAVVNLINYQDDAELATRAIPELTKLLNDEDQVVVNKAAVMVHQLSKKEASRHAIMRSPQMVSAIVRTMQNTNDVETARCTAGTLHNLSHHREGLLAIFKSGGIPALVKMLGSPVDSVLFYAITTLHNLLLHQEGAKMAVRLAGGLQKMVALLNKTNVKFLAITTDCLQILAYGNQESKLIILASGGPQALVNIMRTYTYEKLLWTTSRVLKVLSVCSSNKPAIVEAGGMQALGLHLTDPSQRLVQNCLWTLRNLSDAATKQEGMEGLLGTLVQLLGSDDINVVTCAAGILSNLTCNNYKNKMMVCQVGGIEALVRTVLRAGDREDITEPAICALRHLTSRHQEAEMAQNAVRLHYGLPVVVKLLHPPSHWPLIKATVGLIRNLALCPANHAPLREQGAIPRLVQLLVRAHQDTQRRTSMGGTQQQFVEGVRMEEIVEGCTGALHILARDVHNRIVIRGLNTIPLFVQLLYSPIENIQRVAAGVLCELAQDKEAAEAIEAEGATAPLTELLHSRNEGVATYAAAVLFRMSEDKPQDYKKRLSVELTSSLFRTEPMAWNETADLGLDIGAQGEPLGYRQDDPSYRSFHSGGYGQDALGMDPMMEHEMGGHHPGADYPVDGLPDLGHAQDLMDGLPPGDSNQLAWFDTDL

This assay deals with T1, One Cut Homeobox 2 (ONECUT2) (human (endogenous in MDA-231)) (UniProt O95948).
T1 sequence: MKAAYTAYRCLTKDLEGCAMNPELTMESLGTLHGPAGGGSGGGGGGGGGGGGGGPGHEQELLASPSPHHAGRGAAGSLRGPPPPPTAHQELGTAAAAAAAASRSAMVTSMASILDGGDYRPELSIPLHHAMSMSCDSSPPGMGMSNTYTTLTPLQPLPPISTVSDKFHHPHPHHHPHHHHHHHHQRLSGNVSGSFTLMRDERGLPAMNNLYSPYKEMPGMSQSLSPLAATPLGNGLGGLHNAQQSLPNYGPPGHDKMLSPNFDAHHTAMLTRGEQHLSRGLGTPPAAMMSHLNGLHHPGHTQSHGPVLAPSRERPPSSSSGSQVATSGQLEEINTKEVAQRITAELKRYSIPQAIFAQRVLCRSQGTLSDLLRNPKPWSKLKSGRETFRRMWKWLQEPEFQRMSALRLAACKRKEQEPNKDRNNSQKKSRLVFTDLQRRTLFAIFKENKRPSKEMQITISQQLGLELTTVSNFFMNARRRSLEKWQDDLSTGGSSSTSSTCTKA
Kind of assay: co-IP; lysates of 1 x 10^7 MDA-231 cells incubated with anti-ONECUT2 antibody or IgG isotype control overnight at 4 °C, then protein A/G magnetic beads for 6 h, eluted for western blotting (Epizyme Co-IP Kit). In general terms: Immunoblotting shows a protein as a band on a membrane.

No constants are given. Whether binding was seen depends on the method and setting. In cells and extracts the contact can be indirect. Some binding calls cover weakened binding; strength is not graded here.

Take “beta-catenin (from UniProt P35222 1-781)”: the binding result is reported as “binds”.

B1: POU6F2 (POU domain, class 6, transcription factor 2) (protein, UniProt P78424 1-691)
chain: MSALLQDPMIAGQVSKPLLSVRSEMNAELRGEDKAATSDSELNEPLLAPVESNDSEDTPSKLFGARGNPALSDPGTPDQHQASQTHPPFPVGPQPLLTAQQLASAVAGVMPGGPPALNQPILIPFNMAGQLGGQQGLVLTLPTANLTNIQGLVAAAAAGGIMTLPLQNLQATSSLNSQLQQLQLQLQQQQQQQQQQPPPSTNQHPQPAPQAPSQSQQQPLQPTPPQQPPPASQQPPAPTSQLQQAPQPQQHQPHSHSQNQNQPSPTQQSSSPPQKPSQSPGHGLPSPLTPPNPLQLVNNPLASQAAAAAAAMSSIASSQAFGNALSSLQGVTGQLVTNAQGQIIGTIPLMPNPGPSSQAASGTQGLQVQPITPQLLTNAQGQIIATVIGNQILPVINTQGITLSPIKPGQQLHQPSQTSVGQAASQGNLLHLAHSQASMSQSPVRQASSSSSSSSSSSALSVGQLVSNPQTAAGEVDGVNLEEIREFAKAFKIRRLSLGLTQTQVGQALSATEGPAYSQSAICRHTILRSHFFLPQEAQENTIASSLTAKLNPGLLYPARFEKLDITPKSAQKIKPVLERWMAEAEARHRAGMQNLTEFIGSEPSKKRKRRTSFTPQALEILNAHFEKNTHPSGQEMTEIAEKLNYDREVVRVWFCNKRQALKNTIKRLKQHEPATAVPLEPLTDSLEENS
Consider B1, for which the binding entry is “binds”.
